The list shows a part of the results.
What follows are targets tested with Cc1cc(ccc1-c1ccccc1)C(=O)N1CCCN(CC1)C(=O)CCl [compound 10] (assay: probe-labelled cysteine peptide fold change vs DMSO (competition) (log2 fold change); higher = less target engagement (more negative = stronger competition)). Details: 50 µM; THP-1; incubation time: 4 h.
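Further: competitive profiling in live THP-1 cells: cysteine peptides tagged with an iodoacetamide desthiobiotin (IA-DTB) probe, intensity after compound treatment relative to DMSO-treated cells.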

Amino acid sequences for entries named in this document (tags omitted). A change or cut given only in a name is not applied to a line headed by its entry.
UniProt Q8IWR0: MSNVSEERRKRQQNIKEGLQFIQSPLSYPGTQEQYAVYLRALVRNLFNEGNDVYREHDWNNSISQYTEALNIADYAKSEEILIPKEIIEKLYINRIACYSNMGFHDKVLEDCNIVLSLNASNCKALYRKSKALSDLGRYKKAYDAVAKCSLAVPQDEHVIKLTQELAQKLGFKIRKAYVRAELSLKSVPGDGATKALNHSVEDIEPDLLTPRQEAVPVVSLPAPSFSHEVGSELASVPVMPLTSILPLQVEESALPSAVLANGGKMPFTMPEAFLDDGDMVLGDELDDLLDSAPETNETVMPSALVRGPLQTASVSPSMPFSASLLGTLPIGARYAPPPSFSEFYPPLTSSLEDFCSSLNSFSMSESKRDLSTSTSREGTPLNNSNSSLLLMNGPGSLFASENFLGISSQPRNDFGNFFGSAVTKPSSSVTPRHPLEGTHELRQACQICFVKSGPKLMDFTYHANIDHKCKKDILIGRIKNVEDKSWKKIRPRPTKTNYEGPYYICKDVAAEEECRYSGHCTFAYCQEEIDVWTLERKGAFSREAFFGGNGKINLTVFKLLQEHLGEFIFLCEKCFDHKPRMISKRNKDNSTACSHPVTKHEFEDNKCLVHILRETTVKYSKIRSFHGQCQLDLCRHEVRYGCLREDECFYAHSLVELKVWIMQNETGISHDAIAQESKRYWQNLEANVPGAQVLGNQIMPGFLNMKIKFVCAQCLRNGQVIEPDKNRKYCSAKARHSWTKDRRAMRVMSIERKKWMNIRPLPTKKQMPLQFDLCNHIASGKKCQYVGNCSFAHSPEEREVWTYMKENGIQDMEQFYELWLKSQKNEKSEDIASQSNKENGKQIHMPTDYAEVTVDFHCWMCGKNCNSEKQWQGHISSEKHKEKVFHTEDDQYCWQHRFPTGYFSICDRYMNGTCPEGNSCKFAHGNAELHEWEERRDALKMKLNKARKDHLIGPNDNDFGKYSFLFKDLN
UniProt Q96QU8: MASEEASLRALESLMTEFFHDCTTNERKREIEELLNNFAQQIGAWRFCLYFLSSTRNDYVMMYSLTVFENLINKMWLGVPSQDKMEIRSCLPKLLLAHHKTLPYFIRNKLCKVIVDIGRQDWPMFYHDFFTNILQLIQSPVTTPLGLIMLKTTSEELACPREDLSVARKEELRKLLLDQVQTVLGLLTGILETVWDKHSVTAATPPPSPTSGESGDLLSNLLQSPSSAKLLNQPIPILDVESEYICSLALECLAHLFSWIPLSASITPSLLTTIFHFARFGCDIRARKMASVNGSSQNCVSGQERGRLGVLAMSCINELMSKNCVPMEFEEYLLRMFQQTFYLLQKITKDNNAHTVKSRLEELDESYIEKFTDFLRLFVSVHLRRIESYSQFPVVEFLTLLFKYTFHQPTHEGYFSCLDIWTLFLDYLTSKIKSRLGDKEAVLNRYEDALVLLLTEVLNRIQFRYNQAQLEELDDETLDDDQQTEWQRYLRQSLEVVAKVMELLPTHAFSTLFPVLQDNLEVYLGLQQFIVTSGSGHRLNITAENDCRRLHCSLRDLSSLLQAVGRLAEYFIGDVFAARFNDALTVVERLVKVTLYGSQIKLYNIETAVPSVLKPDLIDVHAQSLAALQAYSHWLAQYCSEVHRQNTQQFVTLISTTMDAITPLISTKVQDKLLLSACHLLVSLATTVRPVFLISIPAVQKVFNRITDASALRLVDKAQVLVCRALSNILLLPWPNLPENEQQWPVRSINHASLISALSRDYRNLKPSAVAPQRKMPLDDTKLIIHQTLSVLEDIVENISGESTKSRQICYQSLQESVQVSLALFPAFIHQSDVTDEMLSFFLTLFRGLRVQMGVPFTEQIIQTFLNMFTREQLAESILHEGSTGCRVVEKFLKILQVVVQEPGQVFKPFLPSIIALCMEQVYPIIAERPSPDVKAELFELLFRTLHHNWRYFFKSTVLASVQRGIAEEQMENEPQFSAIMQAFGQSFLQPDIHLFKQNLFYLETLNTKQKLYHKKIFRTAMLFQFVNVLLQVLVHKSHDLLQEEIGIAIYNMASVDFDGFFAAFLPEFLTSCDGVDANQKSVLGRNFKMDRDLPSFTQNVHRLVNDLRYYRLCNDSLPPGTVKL
UniProt Q9UGR2: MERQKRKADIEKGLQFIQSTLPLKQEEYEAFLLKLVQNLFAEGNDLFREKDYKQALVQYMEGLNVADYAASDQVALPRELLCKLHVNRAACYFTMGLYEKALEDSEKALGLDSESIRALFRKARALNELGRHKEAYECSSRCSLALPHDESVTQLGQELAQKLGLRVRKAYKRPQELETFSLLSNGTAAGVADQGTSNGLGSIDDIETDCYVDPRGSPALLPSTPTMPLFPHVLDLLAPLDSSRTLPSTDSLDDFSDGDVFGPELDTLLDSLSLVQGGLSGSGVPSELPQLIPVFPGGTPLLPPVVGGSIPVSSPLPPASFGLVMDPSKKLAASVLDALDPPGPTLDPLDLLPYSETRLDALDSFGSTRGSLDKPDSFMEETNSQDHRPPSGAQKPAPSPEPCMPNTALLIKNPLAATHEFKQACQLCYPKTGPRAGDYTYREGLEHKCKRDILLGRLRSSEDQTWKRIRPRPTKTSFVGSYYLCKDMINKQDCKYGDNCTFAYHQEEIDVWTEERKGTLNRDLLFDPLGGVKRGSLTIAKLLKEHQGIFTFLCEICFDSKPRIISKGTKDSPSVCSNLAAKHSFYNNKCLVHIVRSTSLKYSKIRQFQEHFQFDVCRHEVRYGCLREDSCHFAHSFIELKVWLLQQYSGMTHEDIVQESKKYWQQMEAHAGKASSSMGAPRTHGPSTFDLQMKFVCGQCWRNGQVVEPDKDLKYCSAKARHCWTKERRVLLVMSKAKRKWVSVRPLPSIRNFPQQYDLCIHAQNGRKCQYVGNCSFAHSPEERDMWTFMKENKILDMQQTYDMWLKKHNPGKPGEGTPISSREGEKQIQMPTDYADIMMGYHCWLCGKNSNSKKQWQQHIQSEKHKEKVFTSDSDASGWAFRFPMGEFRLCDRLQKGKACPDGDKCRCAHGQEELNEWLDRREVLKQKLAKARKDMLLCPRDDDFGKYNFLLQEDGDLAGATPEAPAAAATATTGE
UniProt Q6PJT7: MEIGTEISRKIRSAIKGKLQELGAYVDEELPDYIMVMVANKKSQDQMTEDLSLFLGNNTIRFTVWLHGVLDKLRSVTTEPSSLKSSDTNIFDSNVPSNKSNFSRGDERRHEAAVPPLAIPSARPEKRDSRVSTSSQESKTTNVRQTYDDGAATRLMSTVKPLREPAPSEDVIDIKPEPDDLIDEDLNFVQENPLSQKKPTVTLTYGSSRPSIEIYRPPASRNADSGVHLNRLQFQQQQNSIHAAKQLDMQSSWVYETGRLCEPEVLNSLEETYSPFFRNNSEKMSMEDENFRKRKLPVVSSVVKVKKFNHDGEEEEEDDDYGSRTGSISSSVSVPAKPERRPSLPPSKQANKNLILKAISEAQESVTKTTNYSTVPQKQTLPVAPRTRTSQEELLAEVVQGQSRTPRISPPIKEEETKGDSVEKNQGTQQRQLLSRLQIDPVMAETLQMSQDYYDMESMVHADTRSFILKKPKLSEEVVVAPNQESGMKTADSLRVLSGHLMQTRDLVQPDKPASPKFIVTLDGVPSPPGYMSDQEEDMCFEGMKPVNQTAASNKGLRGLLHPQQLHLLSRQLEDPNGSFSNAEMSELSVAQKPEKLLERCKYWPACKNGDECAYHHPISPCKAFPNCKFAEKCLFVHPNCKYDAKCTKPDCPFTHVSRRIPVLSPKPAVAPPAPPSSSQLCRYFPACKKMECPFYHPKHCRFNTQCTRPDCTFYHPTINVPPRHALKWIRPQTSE
UniProt P13010: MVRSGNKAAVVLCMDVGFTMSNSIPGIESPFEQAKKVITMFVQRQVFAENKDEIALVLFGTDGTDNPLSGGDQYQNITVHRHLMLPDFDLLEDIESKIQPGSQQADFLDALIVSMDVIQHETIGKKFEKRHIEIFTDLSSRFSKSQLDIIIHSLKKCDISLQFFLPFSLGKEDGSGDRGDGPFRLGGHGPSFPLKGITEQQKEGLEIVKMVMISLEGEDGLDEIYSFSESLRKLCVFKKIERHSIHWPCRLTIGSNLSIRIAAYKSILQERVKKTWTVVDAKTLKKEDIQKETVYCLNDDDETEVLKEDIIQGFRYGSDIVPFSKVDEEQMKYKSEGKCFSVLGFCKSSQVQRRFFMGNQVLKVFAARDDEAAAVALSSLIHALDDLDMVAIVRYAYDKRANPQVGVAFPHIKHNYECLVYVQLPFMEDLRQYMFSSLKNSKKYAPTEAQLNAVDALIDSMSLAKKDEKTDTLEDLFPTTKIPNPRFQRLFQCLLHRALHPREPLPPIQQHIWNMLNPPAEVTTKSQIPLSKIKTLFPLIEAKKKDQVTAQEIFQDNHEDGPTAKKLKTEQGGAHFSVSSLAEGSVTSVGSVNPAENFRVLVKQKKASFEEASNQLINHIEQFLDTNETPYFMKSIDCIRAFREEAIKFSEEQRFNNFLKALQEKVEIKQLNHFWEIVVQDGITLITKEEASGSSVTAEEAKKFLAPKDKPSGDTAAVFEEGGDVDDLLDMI
UniProt Q04917: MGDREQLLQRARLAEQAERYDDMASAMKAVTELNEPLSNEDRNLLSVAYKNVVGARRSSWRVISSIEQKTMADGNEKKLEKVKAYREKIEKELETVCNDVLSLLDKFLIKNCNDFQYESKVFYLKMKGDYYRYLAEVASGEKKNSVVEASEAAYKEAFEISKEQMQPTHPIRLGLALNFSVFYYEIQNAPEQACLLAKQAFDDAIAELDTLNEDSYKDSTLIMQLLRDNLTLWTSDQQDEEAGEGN
UniProt Q5D1E8: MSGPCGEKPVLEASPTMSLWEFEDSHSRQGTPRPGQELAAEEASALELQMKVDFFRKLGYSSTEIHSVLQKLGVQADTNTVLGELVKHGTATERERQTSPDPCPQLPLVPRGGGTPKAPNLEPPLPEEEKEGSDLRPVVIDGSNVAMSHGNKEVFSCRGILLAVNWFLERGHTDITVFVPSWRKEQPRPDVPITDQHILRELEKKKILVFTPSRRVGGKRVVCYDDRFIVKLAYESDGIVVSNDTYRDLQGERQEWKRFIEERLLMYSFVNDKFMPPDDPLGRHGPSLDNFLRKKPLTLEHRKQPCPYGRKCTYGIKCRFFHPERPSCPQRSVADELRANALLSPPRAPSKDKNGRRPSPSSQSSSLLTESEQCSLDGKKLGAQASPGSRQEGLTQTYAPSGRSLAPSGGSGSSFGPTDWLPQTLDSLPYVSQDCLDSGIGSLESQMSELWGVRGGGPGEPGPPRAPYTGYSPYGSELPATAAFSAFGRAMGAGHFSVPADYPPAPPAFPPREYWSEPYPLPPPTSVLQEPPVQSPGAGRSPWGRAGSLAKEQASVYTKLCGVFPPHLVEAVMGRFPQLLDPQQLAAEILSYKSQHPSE
UniProt Q8NCP5: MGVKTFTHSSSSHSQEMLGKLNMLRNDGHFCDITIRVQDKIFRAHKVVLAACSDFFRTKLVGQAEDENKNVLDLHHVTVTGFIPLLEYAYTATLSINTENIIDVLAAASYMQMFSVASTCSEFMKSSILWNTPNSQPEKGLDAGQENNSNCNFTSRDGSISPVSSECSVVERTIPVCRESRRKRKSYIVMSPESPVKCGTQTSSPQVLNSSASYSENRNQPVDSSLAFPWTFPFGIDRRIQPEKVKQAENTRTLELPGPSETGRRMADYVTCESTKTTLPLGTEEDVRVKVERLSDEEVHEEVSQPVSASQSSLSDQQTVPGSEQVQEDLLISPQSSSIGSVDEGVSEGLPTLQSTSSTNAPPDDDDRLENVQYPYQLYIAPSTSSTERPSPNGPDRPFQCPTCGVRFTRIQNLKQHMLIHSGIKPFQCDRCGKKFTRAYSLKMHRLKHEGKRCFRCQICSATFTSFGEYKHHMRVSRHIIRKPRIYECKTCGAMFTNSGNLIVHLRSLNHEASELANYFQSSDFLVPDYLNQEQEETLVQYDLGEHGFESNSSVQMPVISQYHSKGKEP
UniProt P18887, whole entry, looked up: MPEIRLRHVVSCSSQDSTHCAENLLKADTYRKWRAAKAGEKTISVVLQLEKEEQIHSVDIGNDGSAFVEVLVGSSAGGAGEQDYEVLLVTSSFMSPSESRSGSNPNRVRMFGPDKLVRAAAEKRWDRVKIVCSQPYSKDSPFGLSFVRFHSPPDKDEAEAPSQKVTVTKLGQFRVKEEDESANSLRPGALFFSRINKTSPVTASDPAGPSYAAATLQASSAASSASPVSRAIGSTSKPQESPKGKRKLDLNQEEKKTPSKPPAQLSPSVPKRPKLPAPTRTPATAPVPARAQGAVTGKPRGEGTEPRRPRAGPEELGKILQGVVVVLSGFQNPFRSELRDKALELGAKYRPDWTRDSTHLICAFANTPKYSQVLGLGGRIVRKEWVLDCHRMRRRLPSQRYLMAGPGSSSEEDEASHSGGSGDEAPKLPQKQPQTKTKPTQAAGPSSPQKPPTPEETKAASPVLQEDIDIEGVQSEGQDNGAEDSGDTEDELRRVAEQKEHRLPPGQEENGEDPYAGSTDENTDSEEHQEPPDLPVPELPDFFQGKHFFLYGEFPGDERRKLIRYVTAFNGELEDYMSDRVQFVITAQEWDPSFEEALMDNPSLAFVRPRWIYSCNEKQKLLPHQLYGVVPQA

Target	probe-labelled cysteine peptide fold change
XPO5_Q9HAV4_10_AMDQVNALCEQLVK (UniProt Q9HAV4)	0.0992
ZC3H7A_Q8IWR0_921_YMNGTCPEGNSCK (UniProt Q8IWR0)	-0.194
XPO6_Q96QU8_324_NCVPMEFEEYLLR (UniProt Q96QU8)	0.145
XPO4_Q9C0E2_439_GFFTQHAVQVFNSYIQCHLAAPDGTR (UniProt Q9C0E2)	-0.0306
YARS2_Q9Y2Z4_413_EAPFSEFFLDPGTSVLDTCR (UniProt Q9Y2Z4)	0.12
ZC3H7B_Q9UGR2_700_FVCGQCWR (UniProt Q9UGR2)	0.072
ZC3H14_Q6PJT7_613_NGDECAYHHPISPCK (UniProt Q6PJT7)	0.16
ZCCHC4_Q9H5U6_19_NGFEAVEAEGSAGCR (UniProt Q9H5U6)	-0.772
YRDC_Q86U90_256_FGIIRPGCALESTTAILQQK (UniProt Q86U90)	0.0352
XPO6_Q96QU8_22_ALESLMTEFFHDCTTNER (UniProt Q96QU8)	-0.00142
XRCC5_P13010_346_CFSVLGFCK (UniProt P13010)	-0.00582
XRCC5_P13010_296_ETVYCLNDDDETEVLK (UniProt P13010)	0.549
ZCCHC3_Q9NUD5_348_THMSGSCTQDR (UniProt Q9NUD5)	-0.12
ZC3H14_Q6PJT7_652_CTKPDCPFTHVSR (UniProt Q6PJT7)	0.138
ZC3H7A_Q8IWR0_775_QMPLQFDLCNHIASGKK (UniProt Q8IWR0)	-0.69
ZFAND2B_Q8WV99_84_AVGEHIDRDCR (UniProt Q8WV99)	-0.195
XPO1_O14980_528_DLLGLCEQK (UniProt O14980)	-0.874
YWHAH_Q04917_97_ELETVCNDVLSLLDK (UniProt Q04917)	-0.0243
XRCC3_O43542_86_LSLGCPVLDALLR (UniProt O43542)	-0.363
ZC3H7B_Q9UGR2_91_AACYFTMGLYEK (UniProt Q9UGR2)	-0.205

Target	probe-labelled cysteine peptide fold change
ZC3HAV1L_Q96H79_125_DCWSTCTLSHDIHTPVNMQVLK (UniProt Q96H79)	-0.603
YES1_P07947_255_LTTVCPTVKPQTQGLAK (UniProt P07947)	-0.29
ZC3H12A_Q5D1E8_374_RPSPSSQSSSLLTESEQCSLDGK (UniProt Q5D1E8)	-0.484
XPR1_Q9UBH6_62_FFQTCEK (UniProt Q9UBH6)	0.0284
XPOT_O43592_650_QASLADCLNHAVGFASR (UniProt O43592)	0.0474
ZCCHC2_Q9C0B9_305_GGPEDAEVEVEPCK (UniProt Q9C0B9)	-0.485
ZBTB44_Q8NCP5_31_NDGHFCDITIR (UniProt Q8NCP5)	0.393
XRCC5_P13010_157_CDISLQFFLPFSLGKEDGSGDRGDGPFR (UniProt P13010)	-0.353
ZBTB44_Q8NCP5_272_MADYVTCESTK (UniProt Q8NCP5)	-0.124
ZC3H13_Q5T200_42_LGPSTGSTAETQCR (UniProt Q5T200)	-0.125
ZC3HAV1_Q7Z2W4_721_TSSVSLTATFRPQEDFCFLSSK (UniProt Q7Z2W4)	-0.396
ZEB2_O60315_583_MIENHNISTPFSCQFCK (UniProt O60315)	-0.182
XRCC1_P18887_132_IVCSQPYSK (UniProt P18887)	-0.124
XPO7_Q9UIA9_331_ILENPQSLSDPNNYHEFCR (UniProt Q9UIA9)	0.327
XRCC1_P18887_362_DSTHLICAFANTPK (UniProt P18887)	-0.146
ZC3H7A_Q8IWR0_149_CSLAVPQDEHVIK (UniProt Q8IWR0)	-0.0376
ZFAND1_Q8TCF1_184_SKPMFFCHR (UniProt Q8TCF1)	-0.351
YWHAQ_P27348_94_SICTTVLELLDK (UniProt P27348)	0.0692
ZC3HAV1_Q7Z2W4_513_VDDHDSEEICLDHLCK (UniProt Q7Z2W4)	-0.396
YDJC_A8MPS7_119_EAVAAGDVDLPQVREELEAQLSCFR (UniProt A8MPS7)	0.573
